# In PMC7049810:
# These are yes or no findings as the source states them, for the method shown. In cells and extracts the contact can be indirect. A yes stands for co-enrichment or nearness to the bait. Other partners may have been found.
# T1: NlpI, soluble version lacking its membrane anchor (Escherichia coli) (UniProt P0AFB1)
# T1 sequence (chain, where used as fl-NlpI in MST, NT647 RED-NHS dye on amines): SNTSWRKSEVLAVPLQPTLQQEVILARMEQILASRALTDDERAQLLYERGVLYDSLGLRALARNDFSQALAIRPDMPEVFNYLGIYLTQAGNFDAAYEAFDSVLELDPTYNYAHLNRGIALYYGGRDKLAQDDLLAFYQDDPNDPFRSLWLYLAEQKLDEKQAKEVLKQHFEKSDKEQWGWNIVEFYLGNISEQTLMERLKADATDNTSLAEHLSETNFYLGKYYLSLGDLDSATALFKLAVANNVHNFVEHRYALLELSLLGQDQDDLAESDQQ
# B1: PBP1B, endogenous in E. coli membrane extract (enzyme, UniProt P02919 1-844)
# chain: MAGNDREPIGRKGKPTRPVKQKVSRRRYEDDDDYDDYDDYEDEEPMPRKGKGKGKGRKPRGKRGWLWLLLKLAIVFAVLIAIYGVYLDQKIRSRIDGKVWQLPAAVYGRMVNLEPDMTISKNEMVKLLEATQYRQVSKMTRPGEFTVQANSIEMIRRPFDFPDSKEGQVRARLTFDGDHLATIVNMENNRQFGFFRLDPRLITMISSPNGEQRLFVPRSGFPDLLVDTLLATEDRHFYEHDGISLYSIGRAVLANLTAGRTVQGASTLTQQLVKNLFLSSERSYWRKANEAYMALIMDARYSKDRILELYMNEVYLGQSGDNEIRGFPLASLYYFGRPVEELSLDQQALLVGMVKGASIYNPWRNPKLALERRNLVLRLLQQQQIIDQELYDMLSARPLGVQPRGGVISPQPAFMQLVRQELQAKLGDKVKDLSGVKIFTTFDSVAQDAAEKAAVEGIPALKKQRKLSDLETAIVVVDRFSGEVRAMVGGSEPQFAGYNRAMQARRSIGSLAKPATYLTALSQPKIYRLNTWIADAPIALRQPNGQVWSPQNDDRRYSESGRVMLVDALTRSMNVPTVNLGMALGLPAVTETWIKLGVPKDQLHPVPAMLLGALNLTPIEVAQAFQTIASGGNRAPLSALRSVIAEDGKVLYQSFPQAERAVPAQAAYLTLWTMQQVVQRGTGRQLGAKYPNLHLAGKTGTTNNNVDTWFAGIDGSTVTITWVGRDNNQPTKLYGASGAMSIYQRYLANQTPTPLNLVPPEDIADMGVDYDGNFVCSGGMRILPVWTSDPQSLCQQSEMQQQPSGNPFDQSSQPQQQPQQQPAQQEQKDSDGVAGWIKDMFGSN
# B2: PBP1C, endogenous in E. coli membrane extract (enzyme, UniProt P76577 1-770)
# chain: MPRLLTKRGCWITLAAAPFLLFLAAWGADKLWPLPLHEVNPARVVVAQDGTPLWRFADADGIWRYPVTIEDVSPRYLEALINYEDRWFWKHPGVNPFSVARAAWQDLTSGRVISGGSTLTMQVARLLDPHPKTFGGKIRQLWRALQLEWHLSKREILTLYLNRAPFGGTLQGIGAASWAYLGKSPANLSYSEAAMLAVLPQAPSRLRPDRWPERAEAARNKVLERMAVQGVWSREQVKESREEPIWLAPRQMPQLAPLFSRMMLGKSKSDKITTTLDAGLQRRLEELAQNWKGRLPPRSSLAMIVVDHTDMRVRGWVGSVDLNDDSRFGHVDMVNSIRSPGSVLKPFVYGLALDEGLIHPASLLQDVPRRTGDYRPGNFDSGFHGPISMSEALVRSLNLPAVQVLEAYGPKRFAAKLRNVGLPLYLPNGAAPNLSLILGGAGAKLEDMAAAYTAFARHGKAGKLRLQPDDPLLERPLMSSGAAWIIRRIMADEAQPLPDSALPRVAPLAWKTGTSYGYRDAWAIGVNARYVIGIWTGRPDGTPVVGQFGFASAVPLLNQVNNILLSRSANLPEDPRPNSVTRGVICWPGGQSLPEGDGNCRRRLATWLLDGSQPPTLLLPEQEGINGIRFPIWLDENGKRVAADCPQARQEMINVWPLPLEPWLPASERRAVRLPPASTSCPPYGHDAQLPLQLTGVRDGAIIKRLPGAAEATLPLQSSGGAGERWWFLNGEPLTERGRNVTLHLTDKGDYQLLVMDDVGQIATVKFVMQ
# B3: EnvC, endogenous in E. coli membrane extract (protein, UniProt P37690 35-419)
# chain: DERDQLKSIQADIAAKERAVRQKQQQRASLLAQLKKQEEAISEATRKLRETQNTLNQLNKQIDEMNASIAKLEQQKAAQERSLAAQLDAAFRQGEHTGIQLILSGEESQRGQRLQAYFGYLNQARQETIAQLKQTREEVAMQRAELEEKQSEQQTLLYEQRAQQAKLTQALNERKKTLAGLESSIQQGQQQLSELRANESRLRNSIARAEAAAKARAEREAREAQAVRDRQKEATRKGTTYKPTESEKSLMSRTGGLGAPRGQAFWPVRGPTLHRYGEQLQGELRWKGMVIGASEGTEVKAIADGRVILADWLQGYGLVVVVEHGKGDMSLYGYNQSALVSVGSQVRAGQPIALVGSSGGQGRPSLYFEIRRQGQAVNPQPWLGR
# B4: PBP3, endogenous in E. coli membrane extract (enzyme, UniProt P0AD68 1-577)
# chain: MKAAAKTQKPKRQEEHANFISWRFALLCGCILLALAFLLGRVAWLQVISPDMLVKEGDMRSLRVQQVSTSRGMITDRSGRPLAVSVPVKAIWADPKEVHDAGGISVGDRWKALANALNIPLDQLSARINANPKGRFIYLARQVNPDMADYIKKLKLPGIHLREESRRYYPSGEVTAHLIGFTNVDSQGIEGVEKSFDKWLTGQPGERIVRKDRYGRVIEDISSTDSQAAHNLALSIDERLQALVYRELNNAVAFNKAESGSAVLVDVNTGEVLAMANSPSYNPNNLSGTPKEAMRNRTITDVFEPGSTVKPMVVMTALQRGVVRENSVLNTIPYRINGHEIKDVARYSELTLTGVLQKSSNVGVSKLALAMPSSALVDTYSRFGLGKATNLGLVGERSGLYPQKQRWSDIERATFSFGYGLMVTPLQLARVYATIGSYGIYRPLSITKVDPPVPGERVFPESIVRTVVHMMESVALPGGGGVKAAIKGYRIAIKTGTAKKVGPDGRYINKYIAYTAGVAPASQPRFALVVVINDPQAGKYYGGAVSAPVFGAIMGGVLRTMNIEPDALTTGDKNEFV
# B5: FtsK, endogenous in E. coli membrane extract (protein, UniProt P46889 1-1329)
# chain: MSQEYIEDKEVTLTKLSSGRRLLEALLILIVLFAVWLMAALLSFNPSDPSWSQTAWHEPIHNLGGMPGAWLADTLFFIFGVMAYTIPVIIVGGCWFAWRHQSSDEYIDYFAVSLRIIGVLALILTSCGLAAINADDIWYFASGGVIGSLLSTTLQPLLHSSGGTIALLCVWAAGLTLFTGWSWVTIAEKLGGWILNILTFASNRTRRDDTWVDEDEYEDDEEYEDENHGKQHESRRARILRGALARRKRLAEKFINPMGRQTDAALFSGKRMDDDEEITYTARGVAADPDDVLFSGNRATQPEYDEYDPLLNGAPITEPVAVAAAATTATQSWAAPVEPVTQTPPVASVDVPPAQPTVAWQPVPGPQTGEPVIAPAPEGYPQQSQYAQPAVQYNEPLQQPVQPQQPYYAPAAEQPAQQPYYAPAPEQPVAGNAWQAEEQQSTFAPQSTYQTEQTYQQPAAQEPLYQQPQPVEQQPVVEPEPVVEETKPARPPLYYFEEVEEKRAREREQLAAWYQPIPEPVKEPEPIKSSLKAPSVAAVPPVEAAAAVSPLASGVKKATLATGAAATVAAPVFSLANSGGPRPQVKEGIGPQLPRPKRIRVPTRRELASYGIKLPSQRAAEEKAREAQRNQYDSGDQYNDDEIDAMQQDELARQFAQTQQQRYGEQYQHDVPVNAEDADAAAEAELARQFAQTQQQRYSGEQPAGANPFSLDDFEFSPMKALLDDGPHEPLFTPIVEPVQQPQQPVAPQQQYQQPQQPVPPQPQYQQPQQPVAPQPQYQQPQQPVAPQQQYQQPQQPVAPQQQYQQPQQPVAPQPQDTLLHPLLMRNGDSRPLHKPTTPLPSLDLLTPPPSEVEPVDTFALEQMARLVEARLADFRIKADVVNYSPGPVITRFELNLAPGVKAARISNLSRDLARSLSTVAVRVVEVIPGKPYVGLELPNKKRQTVYLREVLDNAKFRDNPSPLTVVLGKDIAGEPVVADLAKMPHLLVAGTTGSGKSVGVNAMILSMLYKAQPEDVRFIMIDPKMLELSVYEGIPHLLTEVVTDMKDAANALRWCVNEMERRYKLMSALGVRNLAGYNEKIAEADRMMRPIPDPYWKPGDSMDAQHPVLKKEPYIVVLVDEFADLMMTVGKKVEELIARLAQKARAAGIHLVLATQRPSVDVITGLIKANIPTRIAFTVSSKIDSRTILDQAGAESLLGMGDMLYSGPNSTLPVRVHGAFVRDQEVHAVVQDWKARGRPQYVDGITSDSESEGGAGGFDGAEELDPLFDQAVQFVTEKRKASISGVQRQFRIGYNRAARIIEQMEAQGIVSEQGHNGNREVLAPPPFD
# B6: MltC, endogenous in E. coli membrane extract (enzyme, UniProt P0C066 17-359)
# chain: CSTTKKGDTYNEAWVKDTNGFDILMGQFAHNIENIWGFKEVVIAGPKDYVKYTDQYQTRSHINFDDGTITIETIAGTEPAAHLRRAIIKTLLMGDDPSSVDLYSDVDDITISKEPFLYGQVVDNTGQPIRWEGRASNFADYLLKNRLKSRSNGLRIIYSVTINMVPNHLDKRAHKYLGMVRQASRKYGVDESLILAIMQTESSFNPYAVSRSDALGLMQVVQHTAGKDVFRSQGKSGTPSRSFLFDPASNIDTGTAYLAMLNNVYLGGIDNPTSRRYAVITAYNGGAGSVLRVFSNDKIQAANIINTMTPGDVYQTLTTRHPSAESRRYLYKVNTAQKSYRRR
# B7: AmiC, endogenous in E. coli membrane extract (enzyme, UniProt P63883 32-417)
# chain: AVSQVVAVRVWPASSYTRVTVESNRQLKYKQFALSNPERVVVDIEDVNLNSVLKGMAAQIRADDPFIKSARVGQFDPQTVRMVFELKQNVKPQLFALAPVAGFKERLVMDLYPANAQDMQDPLLALLEDYNKGDLEKQVPPAQSGPQPGKAGRDRPIVIMLDPGHGGEDSGAVGKYKTREKDVVLQIARRLRSLIEKEGNMKVYMTRNEDIFIPLQVRVAKAQKQRADLFVSIHADAFTSRQPSGSSVFALSTKGATSTAAKYLAQTQNASDLIGGVSKSGDRYVDHTMFDMVQSLTIADSLKFGKAVLNKLGKINKLHKNQVEQAGFAVLKAPDIPSILVETAFISNVEEERKLKTATFQQEVAESILAGIKAYFADGATLARRG
# B8: PBP7, endogenous in E. coli membrane extract (enzyme, UniProt P0AFI5 26-310)
# chain: KTAAATTASQPEIASGSAMIVDLNTNKVIYSNHPDLVRPIASISKLMTAMVVLDARLPLDEKLKVDISQTPEMKGVYSRVRLNSEISRKDMLLLALMSSENRAAASLAHHYPGGYKAFIKAMNAKAKSLGMNNTRFVEPTGLSVHNVSTARDLTKLLIASKQYPLIGQLSTTREDMATFSNPTYTLPFRNTNHLVYRDNWNIQLTKTGFTNAAGHCLVMRTVINNKPVALVVMDAFGKYTHFADASRLRTWIETGKVMPVPAAALSYKKQKAAQMAAAGQTAQND
# B9: AmiA, endogenous in E. coli membrane extract (enzyme, UniProt P36548 35-289)
# chain: KDELLKTSNGHSKPKAKKSGGKRVVVLDPGHGGIDTGAIGRNGSKEKHVVLAIAKNVRSILRNHGIDARLTRSGDTFIPLYDRVEIAHKHGADLFMSIHADGFTNPKAAGASVFALSNRGASSAMAKYLSERENRADEVAGKKATDKDHLLQQVLFDLVQTDTIKNSLTLGSHILKKIKPVHKLHSRNTEQAAFVVLKSPSVPSVLVETSFITNPEEERLLGTAAFRQKIATAIAEGVISYFHWFDNQKAHSKKR
# Biological target: T1, NlpI, soluble version lacking its membrane anchor (Escherichia coli)
# Test: affinity purification with mass spectrometry; NlpI coupled to Sepharose; detergent-solubilized E. coli membrane extract bound at low salt (50 mM NaCl), 6°C, eluted with 1 M NaCl; label-free LC-MS against a Tris-Sepharose control column; only the target purified
row,Binder,binding
1,B1,binds
2,B2,binds
3,B3,binds
4,B4,binds
5,B5,binds
6,B6,binds
7,B7,binds
8,B8,binds

# Biological target: T1, NlpI, soluble version lacking its membrane anchor (Escherichia coli)
# Test: affinity purification with mass spectrometry; NlpI coupled to Sepharose; detergent-solubilized E. coli membrane extract bound at high salt (400 mM NaCl), 6°C, eluted with 2 M NaCl; label-free LC-MS against a Tris-Sepharose control column; only the target purified
row,Binder,binding
1,B3,binds
2,B4,binds
3,B5,binds
4,B9,binds
